From the odorant receptor screen of Mainland et al. (2015) come the findings set out here.

Test systems include OR2J2 clone 1403; OR2J2 clone 1404; OR2K2 clone 1340; OR2K2 clone 1450; OR2L13 clone 1481; OR2L2 clone 1465; OR2L3 clone 1526; OR2L5 clone 1697.
What all share (assay): odorant receptor activation (CRE luciferase / Renilla) (fold of no-odor wells); higher = more activation
What all share (details): 100 µM

Assay [1] concerns OR2J2 Y74H/T111A/V146A/T218A clone 1402.
Assay [2] deals with OR2J3 I228V/M261I clone 1616.

SMILES strings stand for the structures. Where “and” joins values, the source holds several entries; their conditions need not be identical. Identical values can stand only once. The list shows a part of the results. Single wells; the ratio to wells without odorant was worked out here, and repeats agree poorly.

Consider `CCCCCCCCCCC=O` [undecanal], for which the odorant receptor activation in [1] turned out to be 0.898; with OR2J2 clone 1403 it was 1.41; with OR2J2 clone 1404 it was 1.25; in assay [2], 0.847; with OR2K2 clone 1340, 0.815; in the assay with OR2K2 clone 1450 it was 0.821. Moreover, the odorant receptor activation was 0.976 in the assay on OR2L13 clone 1481, 1.33 in the assay with OR2L2 clone 1465, 0.894 in the assay with OR2L3 clone 1526 and 0.978 in the assay with OR2L5 clone 1697.

Consider `O=C1CCCCC1` [Cyclohexanone], for which the odorant receptor activation in assay [1] was 0.585; in the assay with OR2J2 clone 1403 it was 1.15; in the assay with OR2J2 clone 1404, 0.927; with OR2K2 clone 1340, 0.864; in the assay on OR2K2 clone 1450, 0.597 and 1.1; in the assay with OR2L13 clone 1481, 0.624 and 1.08. For the same compound, the odorant receptor activation was 0.544 and 1.06 in the assay on OR2L2 clone 1465; 0.734 and 0.737 with OR2L3 clone 1526.

Regarding `C=C(C)C1CC=CCC1` (configuration not stated) [r-limonene], the odorant receptor activation in assay [1] is 2.39 and 0.908; in the assay on OR2J2 clone 1403 it was 1.31 and 1.17; in the assay with OR2J2 clone 1404, 1.64 and 0.963; in assay [2], 1.33; with OR2K2 clone 1340, 0.793 and 0.532; with OR2K2 clone 1450 it was 1.15 and 0.543 and 0.847. The odorant receptor activation in the assay with OR2L13 clone 1481 is 0.951 and 0.552 and 0.964; with OR2L2 clone 1465 it was 0.927 and 0.419 and 1.1; in the assay on OR2L3 clone 1526, 0.936 and 0.543 and 0.598; in the assay with OR2L5 clone 1697, 1.3.

Turning to `CCCCCCC=O` [heptaldehyde], the odorant receptor activation is 0.807 and 0.802 in [1]; 1.25 and 0.828 with OR2J2 clone 1403; 1.3 and 0.829 with OR2J2 clone 1404; 1.02 in [2]; 0.916 and 0.977 and 0.961 with OR2K2 clone 1340; 0.554 and 1.01 and 0.878 in the assay with OR2K2 clone 1450. Further, the odorant receptor activation in the assay on OR2L5 clone 1697 is 0.779.

On to `CC12C=CCC1C1CCC3=CC(=O)CCC3(C)C1CC2` (configuration not stated) [androstadienone], for which the odorant receptor activation is 0.866 in assay [1]; 0.911 in the assay with OR2J2 clone 1403; 1.07 in the assay on OR2J2 clone 1404; 1.26 and 1.09 in the assay on OR2K2 clone 1340; 1.14 in the assay with OR2K2 clone 1450; 1.19 and 1.23 in the assay with OR2L13 clone 1481. Besides, the odorant receptor activation in the assay with OR2L2 clone 1465 is 1.23 and 1.47; with OR2L3 clone 1526, 0.93 and 1.4.

On to `COC(=O)c1ccccc1` [methyl benzoate], for which the odorant receptor activation in [1] was 0.597; in the assay with OR2J2 clone 1403, 1.01; in the assay on OR2J2 clone 1404 it was 0.937; with OR2K2 clone 1340, 0.917; in the assay on OR2K2 clone 1450, 0.741 and 1.04; in the assay with OR2L13 clone 1481 it was 0.891 and 1.24. Besides, the odorant receptor activation was 0.451 and 1.12 with OR2L2 clone 1465; 0.562 and 0.949 in the assay on OR2L3 clone 1526.

On to `CCCCCC(C)=O` [2-heptanone], for which the odorant receptor activation is 0.764 in assay [1]; 1.22 in the assay on OR2J2 clone 1403; 1.05 with OR2J2 clone 1404; 1.69 with OR2K2 clone 1340; 1.32 and 0.754 with OR2K2 clone 1450; 1.3 and 0.737 in the assay on OR2L13 clone 1481. The odorant receptor activation with OR2L2 clone 1465 is 0.966 and 0.726; in the assay on OR2L3 clone 1526, 1.05 and 0.504.

On to `CC(C)C=O` [isobutyraldehyde], for which the odorant receptor activation is 0.839 in assay [1]; 0.703 with OR2J2 clone 1403; 0.686 with OR2J2 clone 1404; 0.65 in assay [2]; 0.891 and 0.761 in the assay on OR2K2 clone 1340; 1.05 in the assay with OR2K2 clone 1450. Also, the odorant receptor activation in the assay on OR2L13 clone 1481 is 1.15 and 1.03; in the assay with OR2L2 clone 1465, 0.979 and 1.13; in the assay on OR2L3 clone 1526 it was 0.852 and 1.01; in the assay with OR2L5 clone 1697 it was 0.72.

As for `C=C(C)C1CC=C(C)C(=O)C1` (configuration not stated) [r-carvone], the odorant receptor activation in assay [1] stood at 1.07; in the assay on OR2J2 clone 1403, 1.37; with OR2J2 clone 1404 it was 1.53; in assay [2], 1.34; with OR2K2 clone 1340, 0.613; with OR2K2 clone 1450, 0.937. Moreover, the odorant receptor activation in the assay with OR2L13 clone 1481 worked out at 1.01; in the assay on OR2L2 clone 1465, 0.903; with OR2L3 clone 1526 it was 1.06; with OR2L5 clone 1697 it was 0.989.

With `CCCC(=O)O` [butyric acid], the odorant receptor activation in assay [1] came out at 0.303; with OR2J2 clone 1403 it was 0.311; with OR2J2 clone 1404 it was 0.356; in [2], 0.999; in the assay on OR2K2 clone 1340, 0.765; in the assay with OR2K2 clone 1450 it was 0.198. For the same compound, the odorant receptor activation in the assay on OR2L13 clone 1481 was 0.9; in the assay with OR2L2 clone 1465 it was 1.24; with OR2L3 clone 1526 it was 0.974; with OR2L5 clone 1697, 0.86.

For the compound `COc1ccccc1O` [guaiacol], the odorant receptor activation in assay [1] was 0.704; in the assay with OR2J2 clone 1403, 0.72; with OR2J2 clone 1404, 0.974; in [2], 1.12; in the assay with OR2K2 clone 1340 it was 0.795 and 1.11; in the assay with OR2K2 clone 1450, 0.94. Besides, the odorant receptor activation in the assay on OR2L13 clone 1481 is 1.19 and 1; with OR2L2 clone 1465 it was 1.27 and 1.2; in the assay on OR2L3 clone 1526 it was 0.719 and 0.948; in the assay on OR2L5 clone 1697, 0.692.

As for `CC(C)(C)c1ccc(CCC=O)cc1` [bourgeonal], the odorant receptor activation amounted to 0.201 in [1]; 0.186 with OR2J2 clone 1403; 0.228 in the assay with OR2J2 clone 1404; 0.586 in the assay on OR2K2 clone 1340; 0.15 in the assay on OR2K2 clone 1450; 0.772 in the assay on OR2L13 clone 1481. Besides, the values for the odorant receptor activation with OR2L2 clone 1465 and in the assay on OR2L3 clone 1526 were 1.07 and 0.862, respectively.
